The values that follow come from patent publication US20020192286A1, “Biodegradable triblock copolymers as solubilizing agents for drugs and method of use thereof” (Macromed, Incorporated, priority 2001, published 2002).

The nature of this data set: physchem. As for the experimental part: Triblock copolymers of Example 2 were used. The neat polymer and the drug were mixed and gently heated (ca. 50° C.) to completely dissolve the drug. Water was added to the mixture to afford a 23% by weight aqueous solution of the triblock copolymers. The solution was allowed to stand for 30 minutes before filtration (0.2 μm pore size filter).

In brackets after ≈: the same amount, converted by molar mass.

The compound `COC(=O)C1=C(C)NC(C)=C(C(=O)OC)C1c1ccccc1[N+](=O)[O-]` [nifedipine] had an increase of solubility of roughly 1000 fold. This compound showed a solubility (water, water solubility) of 6 µg/mL (≈ 17.3 µM).

In general, solubility refers to the dissolved amount per volume that the medium holds. Higher therefore signals much dissolved substance.
